Most values lie at the floor of the assay. Slopes are relative: functional sequences can read slightly below zero.
test system: Saccharomyces cerevisiae PS128 hsf1 delta, HSF1(1-493) fusion; assay: growth estimate (transactivation domain function in HSF1 fusion, heat-shock survival) (a.u. (slope of normalised read count over time)); higher = stronger growth at 37°C, i.e. more transactivation activity; settings: library: random library
Description: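 Random 60-nt DNA library encoding peptides of up to 20 aa, fused to the C-terminus of yeast HSF1 residues 1-493 (C-terminal TAD deleted) and expressed from the native HSF1 promoter on a CEN plasmid in hsf1-deleted S. cerevisiae PS128. Cells were selected at 37°C on -trp 5-FOA plates for 0, 2, 4, 6 and 8 days and amplicons were sequenced. Growth estimate is the slope of a robust linear fit of total-sum-normalised read counts (normalised to the first time point) over time, using at least 2 replicates. Sequences are classed functional (TAD activity) above a threshold of -0.13, set from stop-codon control sequences.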

Substance	growth estimate
GGVCCRGRVYTRLQRSLPRT	< -0.25
GGVGTCLLRKH	< -0.25
GGVLLSAADYLLGLRQELRA	< -0.25
GGVPVFHQVYGGSPAFYLWP	-0.243
GGWLKILPLPET	< -0.25
GHAGRLSGFSSTLSPDNRCY	< -0.25
GHAIYLRFVGLARGVNSV	< -0.25
GHCGQACISM	< -0.25
GHFAALVLRHMGPPELLRQG	< -0.25
GHIWFQACCGRLLRANDIPQ	< -0.25
GHK	< -0.25
GHKCQDRL	< -0.25
GHKQYYIGFANIIPHGKEKA	< -0.25
GHNTADRSGSKQETRRWYSL	-0.181
GHNVTGIIRVCASDCE	< -0.25
GHPE	< -0.25
GHPIASL	< -0.25
GHPTALHLPPELSPAERGER	< -0.25
GHQRPDPVPQGITKHSRTSP	< -0.25
GHRAGAHPRSEIGVRRRVYC	< -0.25
GHRESGDKCKG	< -0.25
GHRQEFRG	< -0.25
GHSCHFCRTWCMTISWFIMM	< -0.25
GHSKRKSLSLLVNTSLDRNK	< -0.25

Substance	growth estimate
GHSPLLH	< -0.25
GHVHAAAVAREGPQHNLPYP	< -0.25
GHVRMILITARKDTICSHPT	< -0.25
GHVWTTAYESATI	-0.153
GHWAW	< -0.25
GHY	< -0.25
GHYIAGCFSGLAAAVIRG	< -0.25
GIAHLANQPLTPQQRARCAY	< -0.25
GIDGA	< -0.25
GIDSFMGGAY	< -0.25
GIEMSRCLSHGIQRGAQRCL	< -0.25
GIEVQ	< -0.25
GIFDSSSNFESMVPQSEAGL	< -0.25
GIFRAGMLQ	< -0.25
GIGDPSRPSNSVCA	< -0.25
GIGITWLEQPRNYSLGRVLT	< -0.25
GIGKEGKPSATYVASHTRPY	-0.246
GIGLSIHLPVRTFSRCWSRF	< -0.25
GIGSHSITGYSSTLTPSWAR	< -0.25
GIGVV	< -0.25
GIICVTLVAGGRVEWACIGC	< -0.25
GIIETRLHVVHVAP	< -0.25
GIKASDGSCEELLNLSFRDP	< -0.25
GIKESDAFHTLDSNLIAAKC	< -0.25

Substance	growth estimate
GIL	< -0.25
GILPLLLHLGSWRNTMVCKR	< -0.25
GILSLRSLVKRDA	< -0.25
GINDLLADRARAVMYRLCIC	< -0.25
GINSRLVRSGPQTSNN	< -0.25
GIPDSWDRCTR	< -0.25
GIPWVIVKF	< -0.25
GIQCAFQVASGYSIEHPGL	< -0.25
GIRCRRSRCVGILNCWYVP	< -0.25
GIRLFS	< -0.25
GIRRGRGKSIADRLYDLARR	< -0.25
GIRRTFVTVAGLCCKGATIL	< -0.25
GIRSA	< -0.25
GISGFLQGN	< -0.25
GISLAVDRLRHDESYAGSF	< -0.25
GISLVDNWIGAYGTPIRTIM	< -0.25
GIVKGA	< -0.25
GIVSDWLFSECLRR	-0.207
GIYNLRTRVQACVPWSRHRS	< -0.25
GKAAQGPC	< -0.25
GKAFQP	< -0.25
GKAIGVAIGIFPNRIRL	< -0.25
GKALESILRIERLRRSLFST	< -0.25
GKARY	< -0.25

For reference, some entries already given.
Substance	growth estimate
GIFDSSSNFESMVPQSEAGL	< -0.25
GIFRAGMLQ	< -0.25
GIGDPSRPSNSVCA	< -0.25
GIGITWLEQPRNYSLGRVLT	< -0.25
GIGKEGKPSATYVASHTRPY	-0.246
GIGLSIHLPVRTFSRCWSRF	< -0.25
GIGSHSITGYSSTLTPSWAR	< -0.25
GIGVV	< -0.25
GIICVTLVAGGRVEWACIGC	< -0.25
GIIETRLHVVHVAP	< -0.25
GIKASDGSCEELLNLSFRDP	< -0.25
GIKESDAFHTLDSNLIAAKC	< -0.25
GIL	< -0.25
GILPLLLHLGSWRNTMVCKR	< -0.25
GILSLRSLVKRDA	< -0.25
GINDLLADRARAVMYRLCIC	< -0.25
GINSRLVRSGPQTSNN	< -0.25

(continued)

Substance	growth estimate
GKATVMGVTLSPHRVHSDYS	< -0.25
GKCEMNRAKPRCWLFRNDQG	< -0.25
GKEHLKHTGDFELRSSDRRH	< -0.25
GKFLFGIWW	< -0.25
GKGSIRLW	< -0.25
GKGTTVFRTRLGKMVEWPVS	< -0.25
GKIRNEAIKFFCTATDLSTC	< -0.25
GKL	< -0.25
GKLANWPETRHALGSHYMTL	< -0.25
GKLAYVQFDPGLNLPRPSGP	< -0.25
GKLNLRGGRIHITYTEMWLT	< -0.25
GKLSLK	< -0.25
GKPLGPCSS	< -0.25
GKRLGEPFG	< -0.25
GKSPSVHRTILFPTARGVLL	< -0.25
GKSSRQ	< -0.25
GKTLP	< -0.25
GKTPLCCTGLVVSSFVSLVG	-0.246
GKVLVTELGTLWII	< -0.25
GKVTWFLTVGMYEVRDITYR	< -0.25
GKWSNVKPMWVLR	< -0.25
GKYRRKCLIWGWAVAQRKSV	< -0.25

Source: the supplement of paper PMC5949888
